These are yes or no findings as the source states them, for the method shown. In cells and extracts the contact can be indirect. Some binding calls cover weakened binding; strength is not graded here.
Target: endogenous JUN (human (endogenous in breast cancer cells)) (UniProt P05412)
Experiment: proximity ligation; in situ PLA (Duolink) on methanol-fixed cultured cells with pairs of primary antibodies; cells treated with 1-10 uM compounds or DMSO for 16 hours

Sequences of proteins named here, by UniProt entry; tags and fusion partners are left off.
UniProt P05412: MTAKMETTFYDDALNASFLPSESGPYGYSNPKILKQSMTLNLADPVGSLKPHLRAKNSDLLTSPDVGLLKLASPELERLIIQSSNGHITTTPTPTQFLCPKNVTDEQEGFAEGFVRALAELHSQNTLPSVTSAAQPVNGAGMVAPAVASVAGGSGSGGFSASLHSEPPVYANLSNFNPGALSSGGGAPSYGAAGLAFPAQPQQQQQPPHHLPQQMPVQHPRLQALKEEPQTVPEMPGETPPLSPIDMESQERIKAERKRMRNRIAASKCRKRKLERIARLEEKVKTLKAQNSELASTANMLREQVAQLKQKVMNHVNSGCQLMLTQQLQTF

B1: endogenous FRA1 (protein, UniProt P15407 1-271)
chain: MFRDFGEPGPSSGNGGGYGGPAQPPAAAQAAQQKFHLVPSINTMSGSQELQWMVQPHFLGPSSYPRPLTYPQYSPPQPRPGVIRALGPPPGVRRRPCEQISPEEEERRRVRRERNKLAAAKCRNRRKELTDFLQAETDKLEDEKSGLQREIEELQKQKERLELVLEAHRPICKIPEGAKEGDTGSTSGTSSPPAPCRPVPCISLSPGPVLEPEALHTPTLMTTPSLTPFTPSLVFTYPSTPEPCASAHRKSSSSSGDPSSDPLGSPTLLAL
binding: binds

Reference: paper PMC6030159 (Scientific Reports, 2018)
